Assay results published in US20030175885A1 (REGEN BIOTECH, published 2003).

Amino acid sequences for entries named in this document (tags omitted). A change or cut given only in a name is not applied to a line headed by its entry.
UniProt P26006: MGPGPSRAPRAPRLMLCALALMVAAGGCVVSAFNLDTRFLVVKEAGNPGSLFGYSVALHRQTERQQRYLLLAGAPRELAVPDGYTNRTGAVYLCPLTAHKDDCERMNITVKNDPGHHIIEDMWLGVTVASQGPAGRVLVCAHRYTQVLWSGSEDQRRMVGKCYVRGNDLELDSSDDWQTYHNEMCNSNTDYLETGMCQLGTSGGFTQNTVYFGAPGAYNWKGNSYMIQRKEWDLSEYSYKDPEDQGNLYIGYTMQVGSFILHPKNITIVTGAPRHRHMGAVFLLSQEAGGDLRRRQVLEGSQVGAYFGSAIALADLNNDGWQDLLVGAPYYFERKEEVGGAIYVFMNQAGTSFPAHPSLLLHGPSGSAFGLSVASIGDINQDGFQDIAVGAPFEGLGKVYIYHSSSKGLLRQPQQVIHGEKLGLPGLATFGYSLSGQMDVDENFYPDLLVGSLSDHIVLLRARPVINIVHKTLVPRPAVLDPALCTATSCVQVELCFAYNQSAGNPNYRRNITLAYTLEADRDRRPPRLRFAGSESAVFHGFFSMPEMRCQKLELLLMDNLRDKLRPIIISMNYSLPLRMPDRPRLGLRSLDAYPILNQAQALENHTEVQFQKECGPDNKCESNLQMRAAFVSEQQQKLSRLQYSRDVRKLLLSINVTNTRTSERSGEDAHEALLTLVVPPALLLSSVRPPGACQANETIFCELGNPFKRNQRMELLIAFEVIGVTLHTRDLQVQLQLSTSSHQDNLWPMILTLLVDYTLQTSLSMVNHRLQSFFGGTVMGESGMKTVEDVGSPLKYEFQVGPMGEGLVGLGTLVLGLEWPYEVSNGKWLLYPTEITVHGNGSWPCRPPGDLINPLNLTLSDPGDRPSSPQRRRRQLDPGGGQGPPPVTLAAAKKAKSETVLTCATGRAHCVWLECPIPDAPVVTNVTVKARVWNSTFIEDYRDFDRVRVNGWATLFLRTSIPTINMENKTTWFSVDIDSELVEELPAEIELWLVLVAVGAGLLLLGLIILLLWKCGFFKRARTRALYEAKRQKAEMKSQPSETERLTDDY
UniProt Q15582: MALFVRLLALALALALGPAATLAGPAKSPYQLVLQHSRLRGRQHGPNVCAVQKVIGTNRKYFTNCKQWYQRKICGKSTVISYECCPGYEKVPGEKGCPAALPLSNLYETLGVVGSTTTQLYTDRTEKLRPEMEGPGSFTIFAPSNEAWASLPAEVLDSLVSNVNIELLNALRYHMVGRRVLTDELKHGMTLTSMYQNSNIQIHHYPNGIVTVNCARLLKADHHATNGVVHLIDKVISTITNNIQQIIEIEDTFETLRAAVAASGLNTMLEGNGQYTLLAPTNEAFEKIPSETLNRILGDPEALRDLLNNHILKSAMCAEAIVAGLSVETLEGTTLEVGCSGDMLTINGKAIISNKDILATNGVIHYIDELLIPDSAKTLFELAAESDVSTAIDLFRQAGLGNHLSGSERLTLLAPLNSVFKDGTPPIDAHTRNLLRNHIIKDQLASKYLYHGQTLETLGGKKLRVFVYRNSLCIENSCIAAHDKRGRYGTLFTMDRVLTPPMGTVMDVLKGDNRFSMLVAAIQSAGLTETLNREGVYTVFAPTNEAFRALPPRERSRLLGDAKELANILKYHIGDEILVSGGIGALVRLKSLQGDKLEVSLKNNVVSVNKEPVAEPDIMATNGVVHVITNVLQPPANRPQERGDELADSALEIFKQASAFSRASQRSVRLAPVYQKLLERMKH

What was measured:
α3β1 integrin [1] = biological target: T1, α3β1 integrin (UniProt P26006 33-1051; P05556 21-798); test: HCE cell adhesion, inhibited by function-blocking mAbs against α3 and β1 integrin subunits
T1 construct: whole, on cells; Never used as a purified protein; It is always the receptor on HCE cells in adhesion assays; also called integrin α3β1; functional receptor for βig-h3

α3β1 integrin [2] = biological target: T1, α3β1 integrin; test: HCE cell adhesion to coated domain, suppressed by antibodies against α3 and β1 integrin subunits
α3β1 integrin [3] = biological target: T1, α3β1 integrin; test: HCE cell adhesion to coated domain, inhibited by function-blocking mAbs against α3 and β1 integrin subunits

Measured: binding

recombinant 4th fas-1 domain protein βig-h3 D-IV (from UniProt Q15582)
binds: α3β1 integrin [1] | α3β1 integrin [2] | α3β1 integrin [3]

recombinant 2nd fas-1 domain protein βig-h3 D-II (from UniProt Q15582)
binds: α3β1 integrin [1] | α3β1 integrin [2] | α3β1 integrin [3]

No constants are given. Whether binding was seen depends on the method and setting. A result given as binding can be weak or reduced; the word gives no strength.
